# Whole data set: some 33,000 sequences, median “E-score (-0.5 to 0.5)” near -0.015, cut for the highest 2% near 0.3. This is one part of the list.
# Biological target: T1, Abf1 (UniProt P14164)
# T1 sequence: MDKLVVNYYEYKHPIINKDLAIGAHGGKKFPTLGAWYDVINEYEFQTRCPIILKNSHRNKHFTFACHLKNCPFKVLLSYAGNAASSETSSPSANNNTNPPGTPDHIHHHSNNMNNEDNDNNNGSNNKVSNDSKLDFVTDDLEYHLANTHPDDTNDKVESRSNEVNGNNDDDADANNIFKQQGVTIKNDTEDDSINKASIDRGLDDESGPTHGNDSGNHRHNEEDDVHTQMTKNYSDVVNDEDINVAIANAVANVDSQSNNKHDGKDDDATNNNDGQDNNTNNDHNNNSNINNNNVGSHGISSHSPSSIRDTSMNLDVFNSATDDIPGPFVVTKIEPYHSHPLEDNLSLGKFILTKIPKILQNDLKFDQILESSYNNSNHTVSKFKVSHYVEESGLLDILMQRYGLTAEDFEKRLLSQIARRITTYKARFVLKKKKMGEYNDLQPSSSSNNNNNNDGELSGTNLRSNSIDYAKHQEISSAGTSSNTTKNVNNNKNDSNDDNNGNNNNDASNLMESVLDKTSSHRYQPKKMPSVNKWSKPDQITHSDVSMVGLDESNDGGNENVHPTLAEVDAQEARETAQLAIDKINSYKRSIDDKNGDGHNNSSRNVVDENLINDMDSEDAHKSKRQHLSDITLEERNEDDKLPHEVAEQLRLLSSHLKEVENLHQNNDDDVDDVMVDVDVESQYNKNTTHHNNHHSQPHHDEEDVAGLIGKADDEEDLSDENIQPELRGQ
# Assay: PBM E-score (8-mer binding enrichment) (E-score (-0.5 to 0.5)); higher = stronger / more preferred TF binding
# Conditions: protein concentration: 200 nM; construct: GST-full length
# Procedure: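 Universal 'all 10-mer' protein binding microarrays (Agilent AMADID 015681) probed with GST-tagged S. cerevisiae TFs (full-length or DBD) made by in vitro transcription/translation (PURExpress), about 100-200 nM. Bound TF was detected with fluorescent anti-GST. Each ungapped 8-mer (which stands for itself and its reverse complement) is scored by the PBM enrichment score (E-score), a modified Wilcoxon-Mann-Whitney statistic from -0.5 to +0.5, computed with the Universal PBM Analysis Suite. Scale: above 0.35 generally sequence-specific binding.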
row,Sequence,PBM E-score
1,TAGACTCA,-0.197
2,ACTGCTAT,-0.116
3,CACAGCAA,0.176
4,ACCGGTAT,-0.215
5,CGACTCAA,0.0184
6,GTCCCCGA,-0.178
7,CGACGTAA,0.123
8,ATCCTGAA,-0.0905
9,AGACATCG,0.111
10,CGATTACA,0.0916
11,ATGCCAAA,-0.0534
12,CGGTAAAC,0.0651
13,AAGGTGGA,-0.0677
14,AATGGCGC,-0.282
15,GCAACGCA,-0.143
16,CTGGGTGA,-0.0896
17,GGCGTGTA,-0.0517
18,ATCGTAAA,0.234
19,AAGATAAC,0.171
20,TGCCCTAA,-0.186
21,ACTTTTTA,0.234
22,CGGTGTCC,-0.0147
23,GCAGCGCC,-0.258
24,ACGTAGCT,0.0916
25,ATCCTGTC,0.235

# Individual results from the entries so far:
# In PBM E-score, CGGTAAAC shows 0.0651
# In PBM E-score, GCAGCGCC shows -0.258
# In PBM E-score, AGACATCG shows 0.111
# In PBM E-score, CGACGTAA shows 0.123
# In PBM E-score, ACTTTTTA shows 0.234
# In PBM E-score, AAGATAAC shows 0.171
# In PBM E-score, ATCCTGTC shows 0.235

# Following part:

row,Sequence,PBM E-score
1,ATAGCTCA,0.00251
2,AACATAGT,0.0305
3,CACTAAGA,0.115
4,CGGGCCAA,-0.205
5,GCATAAAC,0.0635
6,CACATCAC,0.244
7,AAGAGGAC,-0.357
8,CTAAGTAC,0.277
9,AGCTGATA,0.0938
10,AAAAAGAC,-0.0158
11,TCAGACGA,0.305
12,CACCTTTC,0.0415
13,AGAGCAAT,-0.111
14,AAGAGCGG,-0.262
15,TCACCCGA,0.184
16,ATGGTCCC,-0.281
17,CGGTACTC,-0.104
18,ATATTTAA,0.278
19,GACATTGC,0.123
20,CAATGTCC,0.135
21,CCATATTC,-0.0785
22,ATCAGCCC,-0.0285
23,ACCTTCGG,-0.138
24,GCTATAAC,-0.109
25,AGGAAGGC,-0.15

row,Sequence,PBM E-score
1,ATGTAACA,-0.0231
2,AAAGGAAA,0.0937
3,CTCGGCGA,0.162
4,GTGTTTCA,-0.155
5,GGGCCACC,-0.258
6,GCCTGAAC,-0.268
7,CCCCACCC,-0.0997
8,CCCTACGC,-0.1
9,CTTCAGAA,-0.179
10,AGTTTTGA,-0.13
11,AAATCTAA,-0.0492
12,GGGATTGA,-0.0352
13,CGGGGGGC,-0.215
14,GGGCCCAA,-0.152
15,CACGTGTC,0.0235
16,ACTCCAAC,-0.109
17,GATCCTCC,-0.178
18,ACTCTAAT,0.0975
19,GCAGCAAA,-0.157
20,GTGCCAGA,-0.172
21,ATCGATGG,0.081
22,AAGGTTGC,-0.112
23,AGAGGCCT,-0.117
24,GGCTCGAC,-0.0785
25,GCCTCACC,-0.115

row,Sequence,PBM E-score
1,TATCTCGA,0.124
2,AGTGTAAA,-0.00367
3,CAGTATGC,-0.0593
4,CGCTTGGA,0.023
5,GGTATGCA,-0.094
6,CGGTATAC,-0.265
7,ACTCACCT,0.0445
8,GTTACCAA,0.0257
9,ACAGAGTC,-0.203
10,GTTGCTCA,0.0696
11,GAGTTTCC,-0.141
12,AGCGCCAA,-0.207
13,CGGGACAG,-0.0247
14,AAAGAGCA,0.0365
15,AACTCATA,-0.084
16,AGTTATAT,0.16
17,ACGCGCGA,0.133
18,CCGAGAGA,-0.116
19,CGGACAGC,0.0909
20,ACTCTAGG,-0.0987
21,GAACTATA,-0.0979
22,GTACGAAA,0.376
23,AACTGATG,0.051
24,CACGGATG,0.00583
25,CCATCACA,-0.206

row,Sequence,PBM E-score
1,AGGGCCTG,-0.222
2,GAACATTA,0.152
3,ATTGCCTG,0.0518
4,CGAGTCTA,-0.138
5,TCAAATCA,0.188
6,CAAGGGGA,0.0898
7,AAGCGCCC,-0.245
8,AAAGGGTA,-0.0845
9,CTGCCCGA,-0.151
10,AAAAACCT,-0.0101
11,AGTATTAG,0.0106
12,AGCAACCA,-0.0471
13,CGGTGACC,0.0798
14,AAATCGGC,-0.0768
15,ACCTGACT,-0.106
16,AAACGGAT,0.225
17,GCACTTAA,0.0282
18,GCCGAATA,0.151
19,CCGAGGCA,0.111
20,CACGCCTC,-0.181
21,CCGTCTAC,0.0928
22,CTTTCAAA,0.173
23,ATTGCTCG,-0.0852
24,CCTAGTAA,-0.122
25,AATGTACA,0.147

row,Sequence,PBM E-score
1,CATCATCC,0.259
2,ACGCAGTC,-0.224
3,GGCTACGA,0.0524
4,AGGACCCA,-0.256
5,CCATGCGC,-0.129
6,AATTGGAC,0.0413
7,CTCGACCA,-0.171
8,CAGAATCA,0.0602
9,GGTGCACC,0.0353
10,AACTATAG,-0.312
11,GTTCTTAA,0.124
12,CTTTCTGC,0.02
13,GCAGTCCC,-0.371
14,GGGGTGAA,-0.138
15,CTTAATCC,-0.156
16,CATCGGTA,-0.108
17,ATTGGTGG,-0.00223
18,ACGTACAT,0.244
19,CCGTGAAG,0.136
20,GTCATAGA,0.0245
21,CTCCAAAC,0.0343
22,CTAGTTCC,0.00136
23,TACTCCTA,-0.0957
24,GTGAACCA,0.00987
25,GGTGTGCA,0.0988

row,Sequence,PBM E-score
1,CACGTTTA,0.103
2,CTCACCTA,0.0628
3,AGTAGGAA,-0.13
4,CGGGGGAA,-0.334
5,AGGTCCCA,0.028
6,CCAGGTGC,-0.111
7,AGTAGGTC,0.0951
8,ACCTAGAC,0.00518
9,CAGGTCCG,-0.101
10,AGCTTAGG,-0.189
11,CCGGTCCA,-0.276
12,TCCGCGAA,0.179
13,GACAGTTA,0.0295
14,AGATCACG,0.35
15,AGAACTGC,0.024
16,AGCACAGG,-0.22
17,CGACTAAA,0.00382
18,TCACTAAA,0.279
19,ATCACGAA,0.256
20,AAATAAAG,0.134
21,CTTTATGA,-0.0129
22,GAGAGTCC,-0.161

# From the supplement of paper PMC3334620
